This test can be described thus: qHTS Assay for Lipid Storage Modulators in Drosophila S3 Cells.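 For cell number change: cells counted by Cell Tracker Red CMTPX staining in the red channel.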 The following applies: BODIPY lipid droplet fluorescence, 18-24 h; for cell number change: measured here: cell count max response, cells fed with added oleic acid. The method in brief: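 Laser-scanning cytometry quantifies lipid droplet accumulation (500–530 nm total intensity; droplet/cell object ratio) in oleic acid-fed (400 uM added) Drosophila S3 cells treated with a concentration series. 20 uM Triacsin C defined 100% inhibition.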
A general note: In qHTS, concentration-response curves come from the screen itself.

The mark [1] stands for this setting: measured here: cell number channel AC50, cells fed with added oleic acid.
The mark [2] stands for this setting: measured here: lipid fluorescence (Fed channel) AC50, cells fed with added oleic acid.

This is one part of the list. The main result of the screen is listed elsewhere. These columns were measured beside it and carry no call. The list favours compounds with an active or inconclusive main result. Potencies come from curve fits of mixed quality, noted in brackets.

Regarding `Cn1c(=O)c2c(SCC(=O)NCc3ccco3)nc(CC(C)(C)C)nc2n(C)c1=O`, the cell number change is -15.7%.

As for `COc1ccc(NC(=O)CSc2n[nH]c(CNc3cccc(C)c3)n2)cc1`, the cell number change was found to be 2.63%. The AC50 under setting [1] is 1.64 µM [falling, partial curve].

As to `Cc1ccc(-n2c(SCC(=O)OC(C)C)nnc2-c2ccco2)cc1`, the cell number change stood at 34.5%. The half-maximal activity concentration (AC50) under setting [1] was 6.51 µM [rising, single point]. Moreover, the AC50 under setting [2] is 5.17 µM [rising, partial curve].

Consider `Cc1ccn(CC(=O)NC2CCCN(Cc3ccc(CC(C)C)cc3)C2)n1` (stereo unspecified), for which the cell number change was determined as 26.7%. For the same compound, under setting [1], the AC50 is 6.51 µM [rising, single point]. Further, the AC50 under setting [2] is 3.26 µM [rising, partial curve].

As to `CC1CC(C)CN(S(=O)(=O)N2CCCC(C(=O)NC3CCCCC3C)C2)C1` (stereo unspecified), the cell number change is 18.8%.

As for `O=C(/C=C(/c1ccc(Cl)cc1)n1cncn1)c1ccccc1`, the cell number change was -5.45%. In addition, under setting [2], the half-maximal activity concentration (AC50) is 7.31 µM [rising, partial curve].

Take `Cc1ccc(NC(=O)COC(=O)/C=C/c2ccccc2)cc1S(=O)(=O)N1CCOCC1`: the cell number change came to 6.87%.

For `C/C(CC(=O)Nc1ccc(Cl)c(Cl)c1)=N\NC(=O)Cc1ccccc1`, the cell number change turned out to be 30.4%. Moreover, under setting [1], the half-maximal activity concentration (AC50) is 9.2 µM [rising, single point]. The AC50 under setting [2] is 20.6 µM [falling, single point].

As to `CCN(CC)S(=O)(=O)c1cc(NC(=O)C2CSC3(C)CCC(=O)N23)ccc1C` (stereo unspecified), the cell number change was -11.7%.

For `COc1ccc(C)cc1NC(=O)CSc1nc2ccccc2nc1N1CCCCC1`, the cell number change stood at 6.34%. In addition, the concentration at half-maximal activity (AC50) under setting [2] is 0.92 µM [rising, full curve, poor fit].

Take `O=C(CCc1nc(-c2ccccc2Cl)no1)NCCc1ccccc1`: the cell number change turned out to be 7.67%.

In the case of `COc1ccccc1CNC(=O)COC(=O)Cc1cccc(F)c1`, the cell number change is 28.4%. For the same compound, under setting [2], the AC50 was 11.6 µM [rising, partial curve].

For `O=C(COC(=O)c1ccccc1N1C(=O)C2C3CCC(C3)C2C1=O)c1ccccc1` (stereo unspecified), the cell number change was -42.6%. The half-maximal activity concentration (AC50) under setting [1] was 4.11 µM [falling, full curve]. For the same compound, the concentration at half-maximal activity (AC50) under setting [2] is 6.51 µM [falling, single point].

Consider `CCCN1C=CC(=C2C(=O)c3ccccc3C2=O)C=C1`, for which the cell number change was -13.6%. For the same compound, under setting [2], the concentration at half-maximal activity (AC50) is 3.66 µM [rising, partial curve, poor fit].

For `O=C(O)c1cc([N+](=O)[O-])cc2c1nnn2O`, the cell number change is -11.6%. Also, under setting [2], the AC50 is 3.26 µM [falling, single point].

Consider `CC(C)Cn1c(SCC(=O)c2ccc(Cl)s2)nnc1-c1ccco1`, for which the cell number change was -23.7%.

In the case of `CCOC(=O)c1c2ccccc2[n+]([O-])n1[C@@H](C)C(N)=O`, the cell number change is 21.6%. The concentration at half-maximal activity (AC50) under setting [2] was 0.517 µM [rising, partial curve, poor fit].

As to `Cc1ccccc1-n1ncc2c1CC(C)(C)CC2NC(=O)c1cn[nH]c1C` (stereo unspecified), the cell number change was 1.14%.

In the case of `CCCCCCSc1cc(-c2nc3cc(C)ccn3c2NC2CCCCC2)ccc1OC`, the cell number change was found to be 9.97%. In addition, under setting [2], the AC50 is 18.4 µM [falling, single point].

`N#CCC(=O)Nc1ccc(C(=O)NNC(=O)c2ccccc2-n2cccc2)cc1`: the cell number change is -25.9%. In addition, the concentration at half-maximal activity (AC50) under setting [2] is 25.9 µM [falling, partial curve, poor fit].

With `O=C(COC(=O)C1CC1)Nc1ccc(N=Nc2ccccc2)cc1`, the cell number change is 6.61%. Moreover, the concentration at half-maximal activity (AC50) under setting [2] was 4.11 µM [rising, single point].

Regarding `CC(C)(C)OC(=O)NCCc1nnc(S(=O)(=O)Cc2ccc(Cl)cc2Cl)o1`, the cell number change is -89.1%. Moreover, the AC50 under setting [1] is 18.4 µM [falling, partial curve]. In addition, the AC50 under setting [2] was 11.6 µM [falling, partial curve].

For `Cc1cccc(NC(=O)CCNS(=O)(=O)c2ccc(Cl)cc2)c1`, the cell number change stood at 7.56%. For the same compound, the half-maximal activity concentration (AC50) under setting [2] is 0.13 µM [rising, partial curve, poor fit].

As to `COc1nc(N(C)S(=O)(=O)c2ccc(C)cc2)nc(C)c1Br`, the cell number change was -4.01%. For the same compound, the AC50 under setting [2] was 0.00461 µM [rising, full curve, poor fit].

Consider `COc1ccc(NS(=O)(=O)c2ccc3c(c2)NC(=O)CO3)c(OC)c1`, for which the cell number change was -6.49%.

Turning to `Cc1cccc(C)c1NC(=O)C1CCCN1C(=O)NCc1ccccc1` (stereo unspecified), the cell number change turned out to be 16.2%. In addition, the half-maximal activity concentration (AC50) under setting [1] was 0.116 µM [rising, full curve, poor fit].

In the case of `CSc1ccc(S(=O)(=O)NCCSC(C)(C)C)cc1`, the cell number change worked out at 6.51%. Further, under setting [1], the concentration at half-maximal activity (AC50) is 2.31 µM [falling, partial curve, poor fit]. In addition, the half-maximal activity concentration (AC50) under setting [2] is 25.9 µM [falling, partial curve].

As to `CCCCC(=O)Nc1ccc(C(=O)c2ccccc2)cc1`, the cell number change was -4.41%.

For the compound `O=C(CSc1nnc(Cc2ccccc2)o1)Nc1ccc2c(c1)OCO2`, the AC50 is 0.206 µM [rising, full curve] under setting [1] and 0.58 µM [rising, single point] under setting [2].

Turning to `CCC(=O)NC(=S)Nc1ccccc1C(=O)NC1CCCCC1`, the cell number change is 101%. Further, the concentration at half-maximal activity (AC50) under setting [1] was 29.1 µM [rising, single point]. In addition, the concentration at half-maximal activity (AC50) under setting [2] is 1.03 µM [falling, single point].

In the case of `Cc1ccc(C)c(OCc2nc(-c3cccnc3)no2)c1`, the cell number change is -25.8%. Under setting [2], the AC50 is 14.6 µM [falling, partial curve].

As to `Cc1c(CN2CCC(C(=O)Nc3cccc(-c4cccc(Cl)c4)c3)CC2)cnn1C`, the concentration at half-maximal activity (AC50) under setting [2] was 6.51 µM [rising, single point].

With `CC(C)c1ccc(NC(=O)c2csnn2)cc1`, the cell number change is -12.9%. Moreover, the half-maximal activity concentration (AC50) under setting [2] was 6.51 µM [falling, single point].

Take `Cc1ccc(C)c(N(Cc2ccccc2F)S(C)(=O)=O)c1`: the cell number change was -15.3%.

With `COc1ccc(Cc2c(O)nc(SCC(=O)NC(C)(C)C)[nH]c2=O)cc1`, the cell number change is -16.7%. The AC50 under setting [2] was 29.1 µM [falling, single point].

As for `COc1ccc(C(=O)NCC2OCCc3ccccc32)cc1OC` (stereo unspecified), the cell number change worked out at 5.6%. The AC50 under setting [2] is 6.51 µM [rising, single point].

Consider `COc1ccc(S(=O)(=O)N[C@@H](Cc2ccccc2)C(=O)N2CC[C@@]3(O)CCCC[C@H]3C2)cc1`, for which the cell number change is -14.6%. Also, the AC50 under setting [2] is 29.1 µM [rising, single point].

With `O=C(OCC(=O)c1c[nH]c2ccccc12)c1ccc([N+](=O)[O-])s1`, the cell number change is -19.1%.

Take `Cn1nc(-c2ccccc2)c(-c2nc(-c3ccc(Cl)cc3)no2)c1Cl`: the cell number change turned out to be 79.1%. Besides, the concentration at half-maximal activity (AC50) under setting [1] is 23.1 µM [rising, partial curve]. The AC50 under setting [2] was 0.58 µM [rising, single point].

In the case of `CCn1c(SCC(=O)Nc2ccc(OC)c(OC)c2)nnc1-c1c[nH]c2ccccc12`, the AC50 under setting [1] is 2.31 µM [rising, partial curve] and the AC50 under setting [2] was 2.31 µM [rising, partial curve].

As usually defined, the AC50 is the midpoint of the concentration-response curve, whichever way the signal moves. A high value points to activity only at high concentration.
